For this assay, the target named is CNOT3, subunit of the CCR4-NOT complex (endogenous) (human (endogenous in MOLM13)) (UniProt O75175). Briefly: affinity purification with mass spectrometry; immunoprecipitation of endogenous CNOT3 with anti-CNOT3 antibody (anti-mouse IgG as control) on protein A/G Dynabeads from MOLM13 lysate in 1x RIPA buffer, overnight at 4 °C; LC-MS/MS of co-precipitated proteins.

Sequences of proteins named here, by UniProt entry; tags and fusion partners are left off.
UniProt O75175: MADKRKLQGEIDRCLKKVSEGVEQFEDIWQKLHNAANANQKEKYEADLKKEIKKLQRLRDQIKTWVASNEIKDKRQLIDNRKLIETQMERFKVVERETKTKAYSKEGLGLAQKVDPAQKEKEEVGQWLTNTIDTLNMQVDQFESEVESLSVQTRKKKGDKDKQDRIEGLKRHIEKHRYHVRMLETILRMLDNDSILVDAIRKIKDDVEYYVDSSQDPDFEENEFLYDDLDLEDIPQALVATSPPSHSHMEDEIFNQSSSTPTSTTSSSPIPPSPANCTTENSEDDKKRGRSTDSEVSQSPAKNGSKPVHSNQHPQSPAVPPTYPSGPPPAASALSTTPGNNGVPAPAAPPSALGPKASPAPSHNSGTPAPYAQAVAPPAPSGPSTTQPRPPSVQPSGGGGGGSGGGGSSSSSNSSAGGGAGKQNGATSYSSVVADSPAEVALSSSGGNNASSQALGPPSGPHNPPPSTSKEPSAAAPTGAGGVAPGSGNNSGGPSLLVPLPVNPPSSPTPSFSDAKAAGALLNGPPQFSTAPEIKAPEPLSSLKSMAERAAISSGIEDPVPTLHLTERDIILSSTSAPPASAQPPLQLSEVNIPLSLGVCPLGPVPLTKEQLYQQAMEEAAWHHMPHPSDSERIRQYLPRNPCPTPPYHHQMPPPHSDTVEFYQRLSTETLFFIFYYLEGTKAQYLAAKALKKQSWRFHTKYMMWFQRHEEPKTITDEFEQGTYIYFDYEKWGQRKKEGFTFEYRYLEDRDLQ
UniProt P26641: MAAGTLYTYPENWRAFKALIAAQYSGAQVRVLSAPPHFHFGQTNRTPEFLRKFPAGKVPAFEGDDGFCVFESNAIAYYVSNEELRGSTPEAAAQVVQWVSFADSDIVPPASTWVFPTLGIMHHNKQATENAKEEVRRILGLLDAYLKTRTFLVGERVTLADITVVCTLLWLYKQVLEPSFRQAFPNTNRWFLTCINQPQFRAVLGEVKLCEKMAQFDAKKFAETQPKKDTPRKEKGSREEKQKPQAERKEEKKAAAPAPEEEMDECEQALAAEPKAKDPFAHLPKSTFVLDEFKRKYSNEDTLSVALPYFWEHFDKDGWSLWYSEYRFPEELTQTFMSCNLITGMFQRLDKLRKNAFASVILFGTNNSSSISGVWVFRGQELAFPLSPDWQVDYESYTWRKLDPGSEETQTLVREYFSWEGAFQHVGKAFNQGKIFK

Results are given in words; binding and its absence hold for the method and conditions named. Binding seen in cells or lysates may run through a third protein. These calls come from enrichment with a bait or labelling near it, and not all partners need be listed.

As for “EEF1G (endogenous) (from UniProt P26641 1-437)”, the binding result is on record as “binds”.

B1: EEF1E, the auxiliary component of the multi-synthetase complex (endogenous) (protein, UniProt O43324 1-174)
chain: MAAAAELSLLEKSLGLSKGNKYSAQGERQIPVLQTNNGPSLTGLTTIAAHLVKQANKEYLLGSTAEEKAIVQQWLEYRVTQVDGHSSKNDIHTLLKDLNSYLEDKVYLTGYNFTLADILLYYGLHRFIVDLTVQEKEKYLNVSRWFCHIQHYPGIRQHLSSVVFIKNRLYTNSH
As for B1, the binding entry was “binds”.

Values taken from article PMC10943099.
